In the test the target is mCherry-ATG8E (Arabidopsis thaliana) (UniProt Q8S926). Description: affinity purification with mass spectrometry; RFP-Trap of extracts of Arabidopsis seedlings expressing mCherry-ATG8E, ER stress by tunicamycin, peptide competition with AIM wt or AIM mut.

Amino acid sequences for entries named in this document (tags omitted). Residues count along the entry.
UniProt Q8S926, residues 1-118: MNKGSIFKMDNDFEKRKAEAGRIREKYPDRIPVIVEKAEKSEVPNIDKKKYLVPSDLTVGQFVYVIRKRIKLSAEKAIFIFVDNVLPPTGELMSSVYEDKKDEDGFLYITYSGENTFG
UniProt Q9FG23: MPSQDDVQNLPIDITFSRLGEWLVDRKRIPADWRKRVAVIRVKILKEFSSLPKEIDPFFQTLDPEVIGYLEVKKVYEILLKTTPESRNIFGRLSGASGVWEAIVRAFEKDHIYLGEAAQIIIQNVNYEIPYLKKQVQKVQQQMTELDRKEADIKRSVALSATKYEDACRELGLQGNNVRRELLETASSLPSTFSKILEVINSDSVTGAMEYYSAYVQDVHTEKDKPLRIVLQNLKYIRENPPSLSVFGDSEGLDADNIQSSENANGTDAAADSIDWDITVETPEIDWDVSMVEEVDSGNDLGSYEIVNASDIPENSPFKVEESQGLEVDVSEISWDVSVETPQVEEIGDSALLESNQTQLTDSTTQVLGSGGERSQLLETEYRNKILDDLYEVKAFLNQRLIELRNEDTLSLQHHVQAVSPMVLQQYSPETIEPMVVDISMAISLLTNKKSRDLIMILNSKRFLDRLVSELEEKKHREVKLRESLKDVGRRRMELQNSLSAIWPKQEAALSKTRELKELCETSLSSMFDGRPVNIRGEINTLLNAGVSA

Our source for the binding values is paper PMC7515635.

Results are given in words; binding and its absence hold for the method and conditions named. Binding seen in cells or lysates may run through a third protein. These calls come from enrichment with a bait or labelling near it, and not all partners need be listed.

Turning to “AtC53 (endogenous) (from UniProt Q9FG23 1-549)”, the binding entry is “binds”.
